Test results taken from patent publication US20210113649A1.
These are yes or no findings as the source states them, for the method shown. Some results given as binding are weak or reduced against the parent protein; the word gives no strength. For part of these data: Tags and fused reporters may be left off the sequences shown. Each block holds one substance with its values, some of them ahead of it.

Columns and labels:
FLAG-SREBP2 (mature) [1] = biological target: T1, FLAG-SREBP2 (mature) (UniProt Q12772); assay: anti-FLAG IP of 293T cells cotransfected with GFP-DAXX constructs and FLAG-SREBP2 (FIG. 6A)
T1 sequence (looked up): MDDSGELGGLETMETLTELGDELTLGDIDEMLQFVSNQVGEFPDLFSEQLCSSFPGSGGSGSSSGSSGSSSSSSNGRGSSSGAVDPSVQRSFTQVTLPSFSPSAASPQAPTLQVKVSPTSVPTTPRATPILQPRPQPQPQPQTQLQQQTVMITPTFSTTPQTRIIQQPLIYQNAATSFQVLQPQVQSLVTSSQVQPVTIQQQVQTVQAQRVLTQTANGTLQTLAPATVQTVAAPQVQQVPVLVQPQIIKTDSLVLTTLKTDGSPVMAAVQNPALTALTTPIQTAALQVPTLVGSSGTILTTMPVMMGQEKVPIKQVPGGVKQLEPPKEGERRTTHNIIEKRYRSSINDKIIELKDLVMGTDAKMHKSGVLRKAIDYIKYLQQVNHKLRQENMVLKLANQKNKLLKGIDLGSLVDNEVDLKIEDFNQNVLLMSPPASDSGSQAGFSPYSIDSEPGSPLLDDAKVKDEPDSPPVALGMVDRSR

FLAG-SREBP2 (mature) [2] = biological target: T1, FLAG-SREBP2 (mature); assay: FLAG IP of cotransfected 293T cells, immunoblot (FIG. 2D)
FLAG-SREBP2 (mature) [3] = biological target: T1, FLAG-SREBP2 (mature); assay: FLAG IP of 293T cells cotransfected with FLAG-SREBP2 (mature) and GFP-DAXX constructs, immunoblot
FLAG-SREBP2 (mature) [4] = biological target: T1, FLAG-SREBP2 (mature); assay: FLAG IP of transfected 293T cells, immunoblot (FIG. 2D)
[5] = biological target: T2, SREBP1 mature form, endogenous (human) (UniProt P36956); assay: IP of MDA-MB-231 cytoplasmic and nuclear extracts with a mouse anti-DAXX mAb, immunoblot (FIG. 13A)
T2 sequence (looked up): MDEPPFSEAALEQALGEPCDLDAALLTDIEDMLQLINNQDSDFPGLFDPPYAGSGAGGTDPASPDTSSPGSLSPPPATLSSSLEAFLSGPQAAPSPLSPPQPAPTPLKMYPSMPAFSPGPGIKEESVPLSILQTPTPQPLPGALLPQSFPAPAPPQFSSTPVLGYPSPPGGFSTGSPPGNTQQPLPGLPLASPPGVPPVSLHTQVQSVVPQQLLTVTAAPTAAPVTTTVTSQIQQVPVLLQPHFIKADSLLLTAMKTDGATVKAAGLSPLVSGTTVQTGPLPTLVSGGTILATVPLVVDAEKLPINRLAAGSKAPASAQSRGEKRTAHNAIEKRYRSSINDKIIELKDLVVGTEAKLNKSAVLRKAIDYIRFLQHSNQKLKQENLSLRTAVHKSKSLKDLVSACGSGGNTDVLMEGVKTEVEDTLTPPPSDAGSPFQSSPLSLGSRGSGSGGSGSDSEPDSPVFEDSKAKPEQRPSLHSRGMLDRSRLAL

[6] = biological target: T3, SREBP1 precursor (full-length) (human) (UniProt P36956); assay: as above
T3 sequence (looked up): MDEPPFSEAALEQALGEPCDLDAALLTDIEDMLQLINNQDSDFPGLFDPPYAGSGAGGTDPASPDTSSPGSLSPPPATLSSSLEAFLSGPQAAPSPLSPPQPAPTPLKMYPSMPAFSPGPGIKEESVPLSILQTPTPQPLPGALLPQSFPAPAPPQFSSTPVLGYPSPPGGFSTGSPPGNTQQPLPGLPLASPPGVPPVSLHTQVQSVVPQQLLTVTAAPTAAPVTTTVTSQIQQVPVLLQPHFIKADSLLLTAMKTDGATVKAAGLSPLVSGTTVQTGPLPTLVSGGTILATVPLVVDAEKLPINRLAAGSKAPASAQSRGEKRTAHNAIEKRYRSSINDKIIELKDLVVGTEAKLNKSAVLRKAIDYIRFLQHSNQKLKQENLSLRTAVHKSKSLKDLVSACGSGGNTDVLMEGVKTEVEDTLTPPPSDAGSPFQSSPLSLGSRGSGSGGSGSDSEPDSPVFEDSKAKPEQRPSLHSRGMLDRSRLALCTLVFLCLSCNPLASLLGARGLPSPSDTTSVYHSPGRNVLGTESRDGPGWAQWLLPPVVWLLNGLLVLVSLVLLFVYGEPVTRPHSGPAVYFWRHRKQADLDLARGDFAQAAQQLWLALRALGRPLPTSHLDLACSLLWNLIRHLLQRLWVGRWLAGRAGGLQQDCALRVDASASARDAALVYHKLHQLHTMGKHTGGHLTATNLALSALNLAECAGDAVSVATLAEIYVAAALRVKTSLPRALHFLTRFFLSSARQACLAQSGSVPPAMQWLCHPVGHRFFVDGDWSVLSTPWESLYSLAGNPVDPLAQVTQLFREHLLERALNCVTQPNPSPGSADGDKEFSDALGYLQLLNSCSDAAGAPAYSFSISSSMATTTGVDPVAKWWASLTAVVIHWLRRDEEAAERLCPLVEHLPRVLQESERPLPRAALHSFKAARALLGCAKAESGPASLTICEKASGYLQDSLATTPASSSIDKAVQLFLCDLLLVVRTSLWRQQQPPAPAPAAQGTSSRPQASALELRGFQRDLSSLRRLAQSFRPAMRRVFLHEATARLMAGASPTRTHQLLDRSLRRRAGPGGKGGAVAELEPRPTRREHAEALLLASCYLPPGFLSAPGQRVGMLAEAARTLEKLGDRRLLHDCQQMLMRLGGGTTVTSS

[7] = biological target: T4, mature SREBP1c (Plasmid #26802) (UniProt P36956); assay: anti-DAXX IP of lysates of 293T cells transfected with mature SREBP1c, immunoblot (FIG. 13B)
T4 sequence (looked up): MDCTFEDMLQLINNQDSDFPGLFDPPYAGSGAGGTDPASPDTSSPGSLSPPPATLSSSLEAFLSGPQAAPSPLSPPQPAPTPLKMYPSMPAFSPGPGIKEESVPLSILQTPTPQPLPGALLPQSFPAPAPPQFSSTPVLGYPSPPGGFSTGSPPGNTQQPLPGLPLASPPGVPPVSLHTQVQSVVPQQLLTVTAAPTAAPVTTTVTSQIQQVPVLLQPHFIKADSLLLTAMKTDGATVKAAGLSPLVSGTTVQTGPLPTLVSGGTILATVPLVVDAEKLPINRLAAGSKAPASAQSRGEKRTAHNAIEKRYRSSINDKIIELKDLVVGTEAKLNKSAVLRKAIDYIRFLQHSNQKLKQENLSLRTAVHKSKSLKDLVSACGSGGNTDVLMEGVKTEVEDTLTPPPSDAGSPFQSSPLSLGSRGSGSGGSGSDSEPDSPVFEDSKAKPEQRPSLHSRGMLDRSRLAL

FLAG-SREBP2 (mature) [8] = biological target: T1, FLAG-SREBP2 (mature); assay: anti-DAXX IP of lysates of 293T cells transfected with mature SREBP2, immunoblot (FIG. 13B)
[9] = biological target: T2, SREBP1 mature form, endogenous (human); assay: anti-DAXX IP of MDA-MB-231 cytoplasmic and nuclear extracts and of 293T lysates, immunoblot
[10] = biological target: T3, SREBP1 precursor (full-length) (human); assay: as above
FLAG-SREBP2 (mature) [11] = biological target: T1, FLAG-SREBP2 (mature); assay: FLAG IP of cotransfected 293T cells, immunoblot (FIG. 2B lane 16)

binding (FLAG-SREBP2 (mature) [1]): binds
Substance: GFP-wt DAXX (from UniProt Q9UER7 1-740)

binding (FLAG-SREBP2 (mature) [2]): binds
Substance: GFP-DAXX Y124F/Y126F (from UniProt Q9UER7 1-740)

binding (FLAG-SREBP2 (mature) [1]): binds
Substance: GFP-DAXX S668A (from UniProt Q9UER7 1-740)

binding (FLAG-SREBP2 (mature) [2]): binds
Substance: GFP-DAXX S561A (from UniProt Q9UER7 1-740)

binding (FLAG-SREBP2 (mature) [3]): binds
Substance: GFP-DAXX HBD construct (from UniProt Q9UER7 180-384)

Substance: DAXX (death domain-associated protein), endogenous (from UniProt Q9UER7 1-740)
binding (FLAG-SREBP2 (mature) [4]): binds | binding [5]: binds | binding [6]: binds | binding [7]: binds | binding (FLAG-SREBP2 (mature) [8]): binds | binding [9]: binds | binding [10]: binds

binding (FLAG-SREBP2 (mature) [3]): binds
Substance: GFP-DAXX DHB construct (from UniProt Q9UER7 1-144)

binding (FLAG-SREBP2 (mature) [11]): binds
Substance: GFP-DAXX construct (aa 1-437) (from UniProt Q9UER7 1-437)

binding (FLAG-SREBP2 (mature) [2]): binds
Substance: GFP-DAXX K630A/K631A (from UniProt Q9UER7 1-740)
